Some of the results follow.
Legend:
Assay in all cases: log2 fold change, soluble protein after heating vs DMSO (PISA); higher = thermal stabilisation; K562 lysate, 10 uM; active = over 0.2 and 3.5 SD of the protein, either way, in both replicates (recomputed)
[1] = compound: C#Cc1cccc(Nc2ncnc3cc(OCCOC)c(OCCOC)cc23)c1 [erlotinib]
How it was run: (§1)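 K562 pellets were dounce-homogenised in PBS pH 7.4 containing 1 mM MgCl2, and the crude extract, at 1 mg/mL protein, was exposed to 10 μM compound for 30 min. Aliquots were heated for 3 min across 48°C-58°C, pooled, brought to 0.5% NP-40 at 4°C and spun at 21,000xg for 90 min, with the supernatant taken as soluble protein. TMTpro 16plex LC-MS/MS with equalised channel sums quantified that protein. Values are log-two fold changes in thermal stability relative to solvent controls, taken from duplicates.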

Amino acid sequences for entries named in this document (tags omitted). A change or cut given only in a name is not applied to a line headed by its entry.
UniProt Q9NWH9: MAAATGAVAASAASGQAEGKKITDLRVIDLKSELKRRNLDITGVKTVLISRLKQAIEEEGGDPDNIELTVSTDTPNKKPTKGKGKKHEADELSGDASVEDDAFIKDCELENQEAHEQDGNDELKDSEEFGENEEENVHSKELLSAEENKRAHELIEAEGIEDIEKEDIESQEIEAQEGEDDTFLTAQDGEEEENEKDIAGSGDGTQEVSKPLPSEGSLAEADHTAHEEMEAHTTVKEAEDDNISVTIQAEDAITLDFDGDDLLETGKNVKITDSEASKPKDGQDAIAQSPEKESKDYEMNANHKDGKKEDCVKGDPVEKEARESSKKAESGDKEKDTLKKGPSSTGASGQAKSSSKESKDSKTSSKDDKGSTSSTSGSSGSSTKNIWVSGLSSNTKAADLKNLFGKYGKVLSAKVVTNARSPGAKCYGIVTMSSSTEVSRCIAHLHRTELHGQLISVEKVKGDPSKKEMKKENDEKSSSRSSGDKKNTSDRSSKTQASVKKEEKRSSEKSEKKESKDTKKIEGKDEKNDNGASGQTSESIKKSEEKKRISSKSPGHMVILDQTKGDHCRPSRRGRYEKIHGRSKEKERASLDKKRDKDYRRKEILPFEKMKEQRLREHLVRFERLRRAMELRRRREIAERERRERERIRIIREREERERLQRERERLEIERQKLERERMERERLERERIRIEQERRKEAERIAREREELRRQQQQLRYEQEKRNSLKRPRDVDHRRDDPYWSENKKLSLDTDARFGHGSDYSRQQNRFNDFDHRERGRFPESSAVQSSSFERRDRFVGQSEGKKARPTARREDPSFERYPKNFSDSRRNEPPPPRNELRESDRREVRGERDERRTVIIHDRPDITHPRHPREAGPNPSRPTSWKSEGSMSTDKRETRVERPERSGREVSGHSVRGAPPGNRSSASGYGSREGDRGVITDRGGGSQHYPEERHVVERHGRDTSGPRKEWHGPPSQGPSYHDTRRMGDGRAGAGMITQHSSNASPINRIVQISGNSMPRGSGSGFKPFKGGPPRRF

[2] = compound: C/C(=N\NC(=O)C1=CC(=CC=C1)S(=O)(=O)N2CCOCC2)/C3=C(C=CC(=C3)Cl)O
How it was run: as §1

[3] = compound: C1=CC(=CC=C1C2=NC3=C(N2)C=C(C=C3)C(=O)N)OC4=CC=C(C=C4)Cl
How it was run: as §1

[4] = compound: C1=CC2=C(C=CC(=C2)/C=C\3/C(=O)NC(=NCC4=CC=CS4)S3)N=C1
How it was run: as §1

[5] = compound: C1=CC2=NC=CN=C2C=C1/C=C/3\C(=O)NC(=O)S3
How it was run: as §1

[6] = compound: C1=CC=C(C=C1)C2=NC(=C(N2)C3=CC=NC=C3)C4=CC(=C(C=C4)Cl)O
How it was run: as §1

[7] = compound: C1=CC=C(C=C1)[C@H](COC2=CC3=C(C=C2)NC(=O)N3)NC(=O)C4=CC=CN(C4=O)CC5=CC(=C(C=C5)F)F
How it was run: as §1

[8] = compound: C1=CC=C2C(=C1)C3=NNC4=CC=CC(=C43)C2=O
How it was run: as §1

[9] = compound: C1CCN(C1)C(=O)NC2=CC=CC(=C2)NC3=NC=C(C(=N3)NCCC4=CN=CN4)Br
How it was run: as §1

[10] = compound: C1CN(CCC1(CC2=CC=C(C=C2)Cl)N)C3=NC=NC4=C3C=CN4
How it was run: as §1

[11] = compound: C1COCCN1CCN2C3=CC=CC=C3N=C2NC(=O)C4=CC(=CC=C4)[N+](=O)[O-] [IRAK-1-4 Inhibitor I]
How it was run: as §1

[12] = compound: C=CC(=O)N1CCC[C@@H](n2nc(-c3ccc(Oc4ccccc4)cc3)c3c(N)ncnc32)C1 [ibrutinib]
How it was run: as §1

[13] = compound: CC(=O)c1cnc2ccc(-c3cc(Cl)c(O)c(Cl)c3)nc2c1N[C@H]1CC[C@H](CN(C)C)CC1
How it was run: as §1

[14] = compound: CC(C)(C)Cn1c(N)nc2ccc(-c3[nH]c(C(C)(C)C)nc3-c3ccc(F)cc3)nc21 [ralimetinib]
How it was run: as §1

[15] = compound: CC(C)(O)CC(=O)NCCn1ccc2ncnc(Nc3ccc(Oc4cccc(C(F)(F)F)c4)c(Cl)c3)c21
How it was run: as §1

[16] = compound: CC(C)C1=C2N=C(C=C(N2N=C1)NCC3=CC=CC=C3)NCCCCCCN
How it was run: as §1

[17] = compound: CC1=C(C(CC(=O)N1)C2=CC=C(C=C2)C(F)(F)F)C(=O)NC3=C(C=C4C(=C3)C=NN4)F
How it was run: as §1

[18] = compound: CC1=C(C2=C(C=C1)C(=O)C3=CC=CC=C3N2CCCN)C
How it was run: as §1

[19] = compound: CC1=C(C=C(C=C1)NC(=O)C2=CC(=CC=C2)C(C)(C)C#N)NC3=CC4=C(C=C3)N=CN(C4=O)C
How it was run: as §1

[20] = compound: CC1=C(C=C(C=C1)NC(=O)C2=CC(=CC=C2)N(C)C)NC(=O)C3=CC=C(C=C3)O
How it was run: as §1

[21] = compound: CC1=C(SC2=C1C(=N[C@H](C3=NN=C(N32)C)CC(=O)N)C4=CC=C(C=C4)Cl)C
How it was run: as §1

[22] = compound: CC1=C2C(=CC=C1)N=C(N(C2=O)C3=CC=CC=C3C)CN4C=NC5=C(N=CN=C54)N
How it was run: as §1

[23] = compound: CC1=CC=C(C=C1)SC2=C3C=C(SC3=CN=C2)C(=O)N
How it was run: as §1

[24] = compound: CCCS(=O)(=O)Nc1ccc(F)c(C(=O)c2c[nH]c3ncc(-c4ccc(Cl)cc4)cc23)c1F [vemurafenib]
How it was run: as §1

[25] = compound: CCCS(=O)(=O)Nc1ccc(F)c(C(=O)c2c[nH]c3ncc(Cl)cc23)c1F
How it was run: as §1

[26] = compound: CCN(CCCOc1ccc2c(Nc3cc(CC(=O)Nc4cccc(F)c4)[nH]n3)ncnc2c1)CCOP(=O)(O)O [barasertib]
How it was run: as §1

[27] = compound: CC[C@@H]1C(=O)N(C)c2cnc(Nc3ccc(C(=O)NC4CCN(C)CC4)cc3OC)nc2N1C1CCCC1
How it was run: as §1

[28] = compound: CC[C@@H]1C(=O)N(C)c2cnc(Nc3ccc(C(=O)N[C@H]4CC[C@H](N5CCN(CC6CC6)CC5)CC4)cc3OC)nc2N1C(C)C [volasertib]
How it was run: as §1

[29] = compound: CCn1c(C(=O)N(C2CC2)C2CC2)cc2c3c(ncn3C)c(Nc3cc(C)n(C)n3)nc21
How it was run: as §1

[30] = compound: CCn1cc(-c2ccnc3[nH]c(-c4cccc(CN(C)C)c4)cc23)c(-c2ccc(NC(=O)N(C)C)cc2)n1
How it was run: as §1

[31] = compound: CN1CCC(CNc2ccc3ncc(-c4cccc(OC(F)(F)F)c4)n3n2)CC1
How it was run: as §1

[32] = compound: CN1CCN(CCOc2cc(OC3CCOCC3)c3c(Nc4c(Cl)ccc5c4OCO5)ncnc3c2)CC1 [saracatinib]
How it was run: as §1

[33] = compound: CN1CCN(c2nc(C3=C(c4c[nH]c5ccccc45)C(=O)NC3=O)c3ccccc3n2)CC1 [sotrastaurin]
How it was run: as §1

[34] = compound: CN1CC[C@H](c2c(O)cc(O)c3c(=O)cc(-c4ccccc4Cl)oc23)[C@H](O)C1 [alvocidib]
How it was run: as §1

[35] = compound: CN1CCc2c(c3ccccc3n2Cc2ccc(C(=O)NO)cc2)C1 [Tubastatin A]
How it was run: as §1

[36] = compound: CNC(=O)C1=CC=CC=C1NC2=NC(=NC=C2Cl)NC3=C(C=C(C=C3)N4CCOCC4)OC
How it was run: as §1

[37] = compound: CNC(=O)c1ccc(Nc2ncc(C(F)(F)F)c(NCc3nccnc3N(C)S(C)(=O)=O)n2)cc1 [defactinib]
How it was run: as §1

[38] = compound: CNc1nc(-c2ccc3c(N)n[nH]c3c2)cc(N2C[C@@H](C(=O)NC3CCCCC3)CC[C@H]2C)n1
How it was run: as §1

[39] = compound: COC(=O)N[C@@H](C)CNc1nccc(-c2cn(C(C)C)nc2-c2cc(Cl)cc(NS(C)(=O)=O)c2F)n1 [encorafenib]
How it was run: as §1

[40] = compound: COC(=O)[C@H](CCSC)NC(=O)C1=C(C=C(C=C1)NC[C@H](CS)N)C2=CC=CC=C2
How it was run: as §1

[41] = compound: COc1cc(Nc2ncc3c(n2)-c2ccc(Cl)cc2C(c2c(F)cccc2OC)=NC3)ccc1C(=O)O [alisertib]
How it was run: as §1

[42] = compound: COc1cc2nc(-c3cc(F)ccc3O)nc(N[C@@H]3CNC[C@H]3C(C)(C)O)c2cc1OC
How it was run: as §1

[43] = compound: COc1cc2ncnc(Nc3ccc(F)c(Cl)c3)c2cc1OCCCN1CCOCC1 [gefitinib]
How it was run: as §1

[44] = compound: CS(=O)(=O)CCNCc1ccc(-c2ccc3ncnc(Nc4ccc(OCc5cccc(F)c5)c(Cl)c4)c3c2)o1 [lapatinib]
How it was run: as §1

[45] = compound: CS(=O)(=O)N1CCN(Cc2cc3nc(-c4cccc5[nH]ncc45)nc(N4CCOCC4)c3s2)CC1 [pictilisib]
How it was run: as §1

[46] = compound: C[C@@H](Oc1cc(-c2cnn(C3CCNCC3)c2)cnc1N)c1c(Cl)ccc(F)c1Cl [crizotinib]
How it was run: as §1

[47] = compound: C[C@H](C1=CC=C(C=C1)C(=O)NC2=C3C=CNC3=NC=C2)N
How it was run: as §1

[48] = compound: C[C@H](Nc1ncnc2nc[nH]c12)c1cc2cccc(Cl)c2c(=O)n1-c1ccccc1 [duvelisib]
How it was run: as §1

[49] = compound: Cc1cc(Nc2cc(CN3CCOCC3)c3nc(C)c(Cc4ccc(Cl)cc4F)n3n2)n[nH]1 [gandotinib]
How it was run: as §1

[50] = compound: Cc1cc(Nc2cc(N3CCN(C)CC3)nc(Sc3ccc(NC(=O)C4CC4)cc3)n2)n[nH]1 [tozasertib]
How it was run: as §1

[51] = compound: Cc1ccc(-n2nc(C(C)(C)C)cc2NC(=O)Nc2ccc(OCCN3CCOCC3)c3ccccc23)cc1 [doramapimod]
How it was run: as §1

[52] = compound: Cc1ccc(NC(=O)c2ccc(CN3CC[C@H](N(C)C)C3)c(C(F)(F)F)c2)cc1Nc1nccc(-c2cncnc2)n1 [bafetinib]
How it was run: as §1

[53] = compound: Cc1cccc(CC(=O)N2CCc3c2ccc(-c2cn(C)c4ncnc(N)c24)c3F)n1
How it was run: as §1

[54] = compound: Cc1cn(-c2cc(NC(=O)c3ccc(C)c(Nc4nccc(-c5cccnc5)n4)c3)cc(C(F)(F)F)c2)cn1 [nilotinib]
How it was run: as §1

[55] = compound: Cc1nc(Nc2n[nH]c3c2CN(C(=O)N[C@H](CN(C)C)c2ccccc2)C3(C)C)c2sccc2n1
How it was run: as §1

[56] = compound: Cc1nc(Nc2ncc(C(=O)Nc3c(C)cccc3Cl)s2)cc(N2CCN(CCO)CC2)n1 [dasatinib]
How it was run: as §1

[57] = compound: Cc1ncc(-c2ccnc(Nc3ccc(S(C)(=O)=O)cc3)n2)n1C(C)C
How it was run: as §1

[58] = compound: Cc1sc2c(c1C)C(c1ccc(Cl)cc1)=N[C@@H](CC(=O)OC(C)(C)C)c1nnc(C)n1-2
How it was run: as §1

[59] = compound: Cn1cc(-c2ccc3c(c2)CCN3C(=O)Cc2cccc(C(F)(F)F)c2)c2c(N)ncnc21
How it was run: as §1

[60] = compound: Cn1cc(CNCC2CCN(c3ncc(C(=O)NO)cn3)CC2)c2ccccc21 [quisinostat]
How it was run: as §1

[61] = compound: Cn1cncc1[C@@](N)(c1ccc(Cl)cc1)c1ccc2c(c1)c(-c1cccc(Cl)c1)cc(=O)n2C [tipifarnib]
How it was run: as §1

[62] = compound: NC(=O)Nc1cc(-c2cccc(F)c2)sc1C(=O)N[C@H]1CCCNC1
How it was run: as §1

[63] = compound: NC(=O)c1cnc(N[C@@H]2CCCC[C@@H]2N)nc1Nc1cccc(-n2nccn2)c1
How it was run: as §1

[64] = compound: NC1(c2ccc(-c3nc4ccn5c(=O)[nH]nc5c4cc3-c3ccccc3)cc2)CCC1
How it was run: as §1

[65] = compound: NCC(=O)Nc1ccc(-n2nc(C(F)(F)F)cc2-c2ccc3c(ccc4ccccc43)c2)cc1
How it was run: as §1

[66] = compound: O=C(CCCCCCC(=O)Nc1ccccc1)NO [vorinostat]
How it was run: as §1

[67] = compound: O=C(O)c1ccc2c(c1)nc(Nc1cccc(Cl)c1)c1ccncc12 [silmitasertib]
How it was run: as §1

[68] = compound: O=C1NC(=O)C(c2cnc3ccccn23)=C1c1cn2c3c(cc(F)cc13)CN(C(=O)N1CCCCC1)CC2
How it was run: as §1

[69] = compound: c1ccc([C@@H]2C[C@H]2NC2CCNCC2)cc1
How it was run: as §1

[70] = compound: c1cn2cc(-c3ccc4cn[nH]c4c3)nc(Nc3ccc(N4CCOCC4)cc3)c2n1 [entospletinib]
How it was run: as §1

Measured: log2 fold change

SLTM (UniProt Q9NWH9)
inactive: [1] -0.05 | [2] 0.123 | [3] 0.035 | [4] 0.009 | [5] -0.014 | [6] 0.004 | [7] 0.016 | [8] -0.039 | [9] -0.027 | [10] 0.011 | [11] -0.027 | [12] -0.021 | [13] -0.032 | [14] 0.02 | [15] -0.01 | [16] -0.048 | [17] -0.058 | [18] 0.052 | [19] -0.016 | [20] 0.008 | [21] 0.021 | [22] 0.004 | [23] 0.002 | [24] -0.011 | [25] -0.002 | [26] 0.011 | [27] 0.022 | [28] -0.01 | [29] 0.031 | [30] -0.05 | [31] 0.022 | [32] -0.068 | [33] 0.038 | [34] -0.01 | [35] 0.025 | [36] -0.051 | [37] 0.026 | [38] 0.026 | [39] 0.01 | [40] 0.06 | [41] 0.033 | [42] -0.009 | [43] -0.026 | [44] -0.002 | [45] -0.002 | [46] 0.021 | [47] -0.041 | [48] 0.035 | [49] -0.017 | [50] 0.049 | [51] 0.041 | [52] -0.083 | [53] 0.077 | [54] 0.085 | [55] -0.123 | [56] 0.062 | [57] -0.056 | [58] -0.034 | [59] -0.002 | [60] -0.004 | [61] 0.028 | [62] -0.016 | [63] -0.017 | [64] -0.048 | [65] -0.03 | [66] -0.022 | [67] 0.016 | [68] -0.048 | [69] 0.021 | [70] -0.02
